PubChem BioAssay AID624150, Cancer Research UK Cambridge – 2012
Test: 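Effect of silencing chromatin genes on per-cell differentiation marker amount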 (primary screen). Cells: primary human epidermal keratinocytes. Knock-down reagent: siRNA pool against human genes, 1-2 µM siRNA in 20 µl nucleofection. Duration: 72 h after transfection plus 48 h differentiation (about 5 days). Challenge: five arms for 48 h: vehicle, AG1478 10 µM, BMP2/7 200 ng/ml, both together, or 10% serum. Measurement: 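Per-cell amount of a differentiation marker read by infrared scanning of the plate, given as a z-score within each plate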. Reading the numbers: z-score, vehicle and z-score, AG1478 10 µM and z-score, BMP2/7 200 ng/ml and z-score, AG1478 with BMP2/7 and z-score, 10% serum: higher = more differentiation marker per cell.
Shown is an unselected part of 331 deposited reagents. 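Each arm had three replicate z-scores, but only the first replicate is printed; higher values mean more differentiation marker per cell.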 No sequences are given here.

gene knocked down | z-score, vehicle | z-score, AG1478 10 µM | z-score, BMP2/7 200 ng/ml | z-score, AG1478 with BMP2/7 | z-score, 10% serum
DPF3 (double PHD fingers 3) | -0.207 | 0.571 | 2.02 | 1.14 | 1.66
PHF3 (PHD finger protein 3) | 0.0122 | 0.178 | -0.356 | 0.651 | 0.0786
ING5 (inhibitor of growth family member 5) | 2.71 | 2.39 | 1.81 | 1.48 | 2.29
MSH6 (mutS homolog 6) | -1.15 | -0.568 | -1.12 | -0.638 | -1.27
HDAC2 (histone deacetylase 2) | -0.5 | -0.52 | -0.246 | -0.0826 | 0.0901
EHMT1 (euchromatic histone lysine methyltransferase 1) | 1.89 | 2.53 | 1.97 | 1.67 | -0.384
SETD6 (SET domain containing 6, protein lysine methyltransferase) | 0.277 | 0.169 | 0.311 | 1.24 | 0.457
NFX1 (nuclear transcription factor, X-box binding 1) | -0.472 | -0.184 | 0.322 | -0.117 | 0.926
DPF2 (double PHD fingers 2) | 2.29 | 1.94 | 0.913 | 0.807 | 1.5
KAT2A (lysine acetyltransferase 2A) | 0.655 | -0.0584 | -0.0142 | 0.137 | 0.943
ACACA (acetyl-CoA carboxylase alpha) | -0.982 | 0.852 | -1.25 | -0.219 | 0.903
EP300 (EP300 lysine acetyltransferase) | 1.34 | 0.47 | 0.76 | 1.2 | 1.03
TDRD7 (tudor domain containing 7) | 1.09 | 1.31 | -0.404 | -1.22 | -2.38
PHF19 (PHD finger protein 19) | -1.84 | -2.46 | -2.06 | -2.41 | -2.91
ORC1 (origin recognition complex subunit 1) | -1.35 | -0.988 | -1.28 | -0.0113 | -1.95
SMARCC2 (SWI/SNF related BAF chromatin remodeling complex subunit C2) | 1.52 | 1.31 | 1.01 | 0.966 | 1.27
OGA (O-GlcNAcase) | -1.09 | -1 | -0.898 | -0.0965 | -0.519
HSPBAP1 (HSPB1 associated protein 1) | -0.731 | 0.17 | -0.473 | -0.29 | -0.695
PYGO2 (pygopus family PHD finger 2) | -0.875 | -0.399 | -0.419 | 0.0832 | -0.333
KDM3B (lysine demethylase 3B) | -0.564 | -0.718 | -0.496 | -0.992 | -0.404
CBX4 (chromobox 4) | -0.525 | -0.266 | 0.224 | 0.191 | -0.233
SMNDC1 (survival motor neuron domain containing 1) | 0.0818 | -0.676 | -0.121 | -0.0292 | 0.416
SMYD3 (SET and MYND domain containing 3) | 0.00175 | 0.544 | 0.792 | 0.763 | -0.0858
MLH1 (mutL homolog 1) | 0.707 | 0.511 | -1 | -0.814 | -0.527
SETD2 (SET domain containing 2, histone lysine methyltransferase) | -0.229 | 1.3 | -0.234 | 1.03 | 0.863
SP110 (SP110 nuclear body protein) | -0.831 | -0.906 | -1.19 | -1.22 | -0.737
NSD1 (nuclear receptor binding SET domain protein 1) | -1.17 | -1.19 | -1.25 | -0.705 | -0.928
KDM2B (lysine demethylase 2B) | 1.04 | 0.151 | -0.412 | 0.527 | -0.12
CECR2 (CECR2 histone acetyl-lysine reader) | -0.308 | 1.26 | 1.08 | 0.951 | 1.11
PRDM2 (PR/SET domain 2) | -0.703 | -0.502 | -0.712 | -0.874 | -0.428
KDM3A (lysine demethylase 3A) | 0.853 | 0.114 | 1.23 | 2.09 | 1.47
SMYD5 (SMYD family member 5) | 1.02 | -0.558 | -0.649 | -0.971 | 0.661
CDYL (chromodomain Y like) | 0.153 | 0.242 | -0.215 | -0.217 | 0.499
GLYR1 (glyoxylate reductase 1 homolog) | -0.736 | -1.12 | -0.754 | -0.271 | -0.66
